Measured values as given in paper PMC7862700.
Only a part is listed here, and it is no random draw. At the low end of the ranking the order means little.

Amino acid sequences for entries named in this document (tags omitted). A change or cut given only in a name is not applied to a line headed by its entry.
UniProt Q9Y603: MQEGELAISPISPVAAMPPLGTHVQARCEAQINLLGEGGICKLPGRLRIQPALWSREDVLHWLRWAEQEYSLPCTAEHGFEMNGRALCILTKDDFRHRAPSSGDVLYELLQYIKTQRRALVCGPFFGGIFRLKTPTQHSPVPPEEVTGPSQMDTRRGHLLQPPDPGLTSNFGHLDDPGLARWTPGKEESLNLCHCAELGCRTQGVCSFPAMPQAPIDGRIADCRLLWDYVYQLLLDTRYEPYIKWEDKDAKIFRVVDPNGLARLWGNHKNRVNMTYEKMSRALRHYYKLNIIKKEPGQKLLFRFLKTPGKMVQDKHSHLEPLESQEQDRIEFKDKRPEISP
UniProt P41212: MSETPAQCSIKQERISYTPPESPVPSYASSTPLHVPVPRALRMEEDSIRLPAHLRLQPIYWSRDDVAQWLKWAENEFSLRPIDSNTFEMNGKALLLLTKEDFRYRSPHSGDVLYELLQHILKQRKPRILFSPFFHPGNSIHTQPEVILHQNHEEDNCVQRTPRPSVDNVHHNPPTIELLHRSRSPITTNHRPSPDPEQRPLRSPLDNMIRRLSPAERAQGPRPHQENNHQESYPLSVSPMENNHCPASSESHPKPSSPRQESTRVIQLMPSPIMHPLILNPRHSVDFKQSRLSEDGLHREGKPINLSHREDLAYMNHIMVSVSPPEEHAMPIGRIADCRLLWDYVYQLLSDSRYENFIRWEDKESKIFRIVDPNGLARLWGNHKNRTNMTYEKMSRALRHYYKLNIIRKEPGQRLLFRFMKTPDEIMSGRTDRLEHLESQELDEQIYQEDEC

Assays:
Experiment in all cases: DAPPL (digital affinity profiling via proximity ligation, sequencing)
Conditions in all cases: 10 mM Tris-HCl pH 7.5, 50 mM NaCl, 1 mM DTT, 4% glycerol, room temperature, 30 min; GST-TFs on glutathione beads, 16-mer random dsDNA library, 0.1% …; high values mean tight binding; double strand, one strand shown; scale: fold enrichment (6-mer frequency, TF over GST control)
ELF3 = molecular target: T1, ELF3 (UniProt P78545)
T1 sequence: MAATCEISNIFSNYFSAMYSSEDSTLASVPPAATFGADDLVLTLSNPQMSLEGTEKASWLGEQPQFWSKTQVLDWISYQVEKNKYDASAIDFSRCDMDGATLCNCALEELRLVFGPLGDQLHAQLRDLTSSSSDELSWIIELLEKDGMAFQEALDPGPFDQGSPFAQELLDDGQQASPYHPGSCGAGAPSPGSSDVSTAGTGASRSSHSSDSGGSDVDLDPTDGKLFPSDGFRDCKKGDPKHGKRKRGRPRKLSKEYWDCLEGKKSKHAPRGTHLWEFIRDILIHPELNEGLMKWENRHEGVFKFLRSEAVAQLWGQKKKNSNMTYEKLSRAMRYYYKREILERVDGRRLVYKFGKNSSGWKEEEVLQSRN

ETV7 = ETV7 (UniProt Q9Y603)
ETV6 = ETV6 (UniProt P41212)

| Sequence | binding signal (ELF3) | binding signal (ETV7) | binding signal (ETV6) |
| --- | --- | --- | --- |
| CGTAGT | 0.941 | 0.902 | 0.742 |
| GACGTA | 0.693 | 0.772 | 0.758 |
| GTACCG | 0.934 | 0.748 | 0.718 |
| ACACGT | 0.778 | 0.789 | 0.811 |
| GGAATC | 0.721 | 0.762 | 0.749 |
| CATCGG | 0.678 | 0.684 | 0.651 |
| GCAAGT | 0.834 | 0.835 | 0.77 |
| AGACGC | 0.654 | 0.752 | 0.636 |
| CACAGA | 0.822 | 0.902 | 0.852 |
| GAGTTC | 0.677 | 0.776 | 0.737 |
| GCGGAG | 0.318 | 0.353 | 0.262 |
| GGAACG | 0.566 | 0.685 | 0.594 |
| AACGGG | 0.585 | 0.746 | 0.7 |
| AGGTGC | 0.656 | 0.707 | 0.626 |
| GTCAGT | 0.577 | 0.69 | 0.643 |
| GTAGGA | 0.527 | 0.613 | 0.68 |
| CACAGT | 0.852 | 0.786 | 0.736 |
| CGGACG | 0.4 | 0.438 | 0.45 |
| GTGGAG | 0.319 | 0.407 | 0.412 |
| AACGTG | 0.345 | 0.401 | 0.381 |
| TGAGAA | 0.698 | 0.688 | 0.685 |

| Sequence | binding signal (ELF3) | binding signal (ETV7) | binding signal (ETV6) |
| --- | --- | --- | --- |
| GGCGTA | 0.636 | 0.72 | 0.719 |
| CGCATC | 0.897 | 0.818 | 0.861 |
| CAGACC | 0.777 | 0.748 | 0.823 |
| GGGATA | 0.813 | 0.861 | 0.761 |
| GAGGGG | 0.504 | 0.614 | 0.488 |
| CCGGAG | 0.511 | 0.549 | 0.497 |
| TGAGCG | 0.666 | 0.695 | 0.635 |
| CGCAGG | 0.855 | 0.891 | 0.852 |
| ACACAG | 0.948 | 1.13 | 0.959 |
| TCAGGA | 0.733 | 0.774 | 0.897 |
| CGCATG | 0.769 | 0.665 | 0.593 |
| GTGGCG | 0.834 | 0.82 | 0.846 |
| AGGCAA | 0.82 | 0.819 | 0.717 |
| CCAAGG | 0.941 | 0.83 | 0.895 |
| TCGGTC | 0.506 | 0.609 | 0.542 |
| AACAGT | 0.773 | 0.741 | 0.659 |
| GCAGAG | 0.697 | 0.716 | 0.633 |
| GACTGG | 0.666 | 0.741 | 0.657 |
| CGCATA | 0.812 | 0.746 | 0.78 |
| GAGCCT | 0.888 | 0.76 | 0.865 |
| GGGACA | 0.593 | 0.649 | 0.617 |

| Sequence | binding signal (ELF3) | binding signal (ETV7) | binding signal (ETV6) |
| --- | --- | --- | --- |
| CATGTG | 0.733 | 0.842 | 0.821 |
| CAGAGG | 0.646 | 0.693 | 0.598 |
| GGCCCG | 0.811 | 0.797 | 0.793 |
| TTGGAC | 0.86 | 0.947 | 0.92 |
| GGAGGT | 0.3 | 0.417 | 0.324 |
| CGCCAG | 0.723 | 0.637 | 0.688 |
| AGTCAA | 0.673 | 0.648 | 0.627 |
| GTGCGT | 0.724 | 0.583 | 0.606 |
| GAGGAG | 0.239 | 0.264 | 0.227 |
| CATGTC | 0.841 | 0.796 | 0.82 |
| GACTGA | 0.781 | 0.759 | 0.754 |
| CAGGTC | 0.756 | 0.717 | 0.622 |
| ACCATG | 0.863 | 0.887 | 0.867 |
| GTAGGT | 0.812 | 0.716 | 0.851 |
| AGCCAA | 0.899 | 0.82 | 0.843 |
| AGCCGG | 0.53 | 0.678 | 0.624 |
| GACGGC | 0.674 | 0.746 | 0.75 |
| GGGCGG | 0.459 | 0.534 | 0.445 |
| GGTGCC | 0.746 | 0.698 | 0.739 |
| AGGTCA | 0.667 | 0.78 | 0.689 |
| GCCGCG | 0.818 | 0.738 | 0.81 |

Individual results from the list:
Value for CGCAGG under binding signal (ETV7): 0.891
Value for GAGCCT under binding signal (ETV6): 0.865

The list goes on:

| Sequence | binding signal (ELF3) | binding signal (ETV7) | binding signal (ETV6) |
| --- | --- | --- | --- |
| GGAGTG | 0.348 | 0.499 | 0.388 |
| CCGTGA | 0.175 | 0.205 | 0.175 |
| TGAGCC | 0.959 | 0.886 | 0.805 |
| GAGGCG | 0.411 | 0.512 | 0.372 |
| GATCGT | 0.403 | 0.428 | 0.453 |
| AGTAGA | 0.856 | 0.771 | 0.8 |
| GCGGTC | 0.768 | 0.604 | 0.71 |
| ACAGAC | 0.9 | 0.785 | 0.833 |
| GGAGTT | 0.402 | 0.536 | 0.439 |
| CAGGGG | 0.608 | 0.631 | 0.576 |
| CGTGCA | 0.702 | 0.675 | 0.71 |
| ATCCAG | 0.893 | 0.841 | 0.857 |
| CAGACG | 0.505 | 0.556 | 0.436 |
| GACACG | 0.672 | 0.761 | 0.662 |
| CCAGGA | 0.787 | 0.68 | 0.7 |
| CAGCTG | 0.812 | 0.938 | 0.802 |
| GAGGGA | 0.479 | 0.513 | 0.513 |
| GGCGCA | 0.551 | 0.673 | 0.601 |
| GGGTTA | 0.864 | 0.815 | 0.781 |
| CAGCGT | 0.761 | 0.771 | 0.739 |
| AGACAT | 0.827 | 0.91 | 0.875 |

An excerpt of these results, as tab-separated lines:
Sequence	binding signal (ELF3)	binding signal (ETV7)	binding signal (ETV6)
GCAAGT	0.834	0.835	0.77
AGACGC	0.654	0.752	0.636
CACAGA	0.822	0.902	0.852
GAGTTC	0.677	0.776	0.737
GCGGAG	0.318	0.353	0.262
GGAACG	0.566	0.685	0.594
AACGGG	0.585	0.746	0.7
AGGTGC	0.656	0.707	0.626
GTCAGT	0.577	0.69	0.643
GTAGGA	0.527	0.613	0.68
CACAGT	0.852	0.786	0.736
CGGACG	0.4	0.438	0.45
GTGGAG	0.319	0.407	0.412
AACGTG	0.345	0.401	0.381
TGAGAA	0.698	0.688	0.685
GGCGTA	0.636	0.72	0.719
CGCATC	0.897	0.818	0.861
CAGACC	0.777	0.748	0.823
